Measurements published in publication PMC9580158.
These are yes or no findings as the source states them, for the method shown. In cells and extracts the contact can be indirect. Some binding calls cover weakened binding; strength is not graded here. For part of these data: Where a sequence is shown, tags or fusion partners need not be part of it. Values belong to the molecule of their own block, whether it stands above or below them.

Sequences of proteins named here, by UniProt entry; tags and fusion partners are left off. Residues count along the entry.
UniProt P35869, residues 11-848: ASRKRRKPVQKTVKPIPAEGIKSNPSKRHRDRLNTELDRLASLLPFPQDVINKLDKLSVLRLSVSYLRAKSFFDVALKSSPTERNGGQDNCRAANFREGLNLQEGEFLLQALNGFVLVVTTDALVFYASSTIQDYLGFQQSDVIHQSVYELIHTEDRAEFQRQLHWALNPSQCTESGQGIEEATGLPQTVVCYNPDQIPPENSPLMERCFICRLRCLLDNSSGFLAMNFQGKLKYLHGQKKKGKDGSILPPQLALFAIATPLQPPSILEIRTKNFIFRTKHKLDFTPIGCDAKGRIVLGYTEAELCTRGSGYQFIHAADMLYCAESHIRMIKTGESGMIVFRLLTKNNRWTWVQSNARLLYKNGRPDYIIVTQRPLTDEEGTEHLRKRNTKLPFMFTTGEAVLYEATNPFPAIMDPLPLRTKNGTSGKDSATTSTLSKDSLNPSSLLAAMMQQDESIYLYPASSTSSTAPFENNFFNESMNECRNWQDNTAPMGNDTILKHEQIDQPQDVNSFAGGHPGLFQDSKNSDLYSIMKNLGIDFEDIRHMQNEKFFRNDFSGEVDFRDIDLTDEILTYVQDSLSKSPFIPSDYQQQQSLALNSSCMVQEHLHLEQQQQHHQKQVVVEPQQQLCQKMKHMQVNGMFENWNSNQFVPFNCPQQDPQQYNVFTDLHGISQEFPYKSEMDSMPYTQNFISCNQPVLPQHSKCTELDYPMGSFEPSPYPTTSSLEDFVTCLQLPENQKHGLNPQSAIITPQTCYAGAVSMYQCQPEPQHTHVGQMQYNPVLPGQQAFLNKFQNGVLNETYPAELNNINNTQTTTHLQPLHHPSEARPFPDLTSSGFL

Experiments:
[1] = target: T1, Flag-tagged NUPR1 (nuclear protein 1) (UniProt O60356); assay: co-IP; anti-Flag (control: IgG) on lysates of MHCC-97H/MHCC-97L ectopically expressing Flag-tagged NUPR1, RIPA lysis buffer, protein A/G agarose, western blot for Flag-NUPR1 and AhR
T1 sequence: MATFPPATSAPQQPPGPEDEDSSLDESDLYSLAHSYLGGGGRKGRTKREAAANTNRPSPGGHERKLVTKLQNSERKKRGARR

[2] = target: aryl hydrocarbon receptor (AhR) (human (endogenous in MHCC-97H, MHCC-97L, QGY-7701, Hep3B)) (UniProt P35869); assay: co-IP; reciprocal: anti-AhR (control: IgG) on cell lysates, RIPA lysis buffer, protein A/G agarose, western blot for NUPR1 and AhR
[3] = target: aryl hydrocarbon receptor (AhR) (human (endogenous in MHCC-97H, MHCC-97L, QGY-7701, Hep3B)) (UniProt P35869); assay: co-IP; endogenous proteins: anti-AhR on lysates of QGY-7701 and Hep3B cells, RIPA lysis buffer, protein A/G agarose, western blot

- binding [1]: binds
Molecule: aryl hydrocarbon receptor (AhR) (from UniProt P35869 11-848)

- binding [2]: binds
B1: Flag-tagged NUPR1 (nuclear protein 1) (protein, UniProt O60356 1-82)
chain: MATFPPATSAPQQPPGPEDEDSSLDESDLYSLAHSYLGGGGRKGRTKREAAANTNRPSPGGHERKLVTKLQNSERKKRGARR

- binding [3]: binds
B2: NUPR1 (nuclear protein 1), endogenous (protein, UniProt O60356 1-82)
chain: MATFPPATSAPQQPPGPEDEDSSLDESDLYSLAHSYLGGGGRKGRTKREAAANTNRPSPGGHERKLVTKLQNSERKKRGARR
